Counter-ions that a name gives are not always drawn. Whole data set: some 1,000 compounds, median “cFRET/donor change relative to DMSO, normalised to beta-lapachone positive control (supercomplex I-IV assembly)” near 0.18, cut for the lowest 2% near -1. This is one part of the list.

The text below walks through data of the supplement of paper PMC9877034.

The experiment concerns C2C12 (NDUFB8-AcGFP / COX8A-DsRed-Monomer FRET reporter). Put plainly: cFRET/donor change relative to DMSO, normalised to beta-lapachone positive control (supercomplex I-IV assembly) (fraction of beta-lapachone effect); higher = more respiratory supercomplex assembly. The note with it: 40 µM; 24 h. The protocol:
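Cells were treated with 40 uM compound for 24 h and imaged on an IN Cell Analyzer 6000. Corrected FRET was divided by donor signal (cFRET/donor) and measured in two replicate experiments. The score is (mean cFRET/donor of compound - mean DMSO) / (mean beta-lapachone 40 uM - mean DMSO). Compounds flagged for prominent cell death, abnormal morphology or decreased cell number were excluded.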
`Cc1ccc(-c2cc(C(F)(F)F)nn2-c2ccc(S(N)(=O)=O)cc2)cc1` [Celecoxib] showed a cFRET/donor change of 0.546.

As for `CC(C)[N+]1(C)[C@@H]2CC[C@H]1C[C@@H](OC(=O)C(CO)c1ccccc1)C2` (stereo partly drawn) [Ipratropium bromide], the cFRET/donor change was 0.299.

`c1cc(CN2CCCCC2)cc(OCCCNc2nc3ccccc3s2)c1` displayed a cFRET/donor change of 0.343.

As for `c1ccc2c(c1)CC(N1CCN(c3cccc4c3OCCO4)CC1)C2`, the cFRET/donor change came out at 0.201.

`CCN(CC)CCNC(=O)c1ccc(N)cc1` [Procainamide hydrochloride] yielded a cFRET/donor change of 0.127.

As to `O=C(O)CCC(C(=O)O)N1C(=O)c2ccccc2C1=O` [L-Glutamic acid, N-phthaloyl-], the cFRET/donor change is -0.11.

On to `CC(=O)Nc1nnc(S(N)(=O)=O)s1` [Acetazolamide], for which the cFRET/donor change is 0.22.

On to `Clc1ccc2nsnc2c1NC1=NCCN1` [Tizanidine hydrochloride], for which the cFRET/donor change was -0.0735.

`C[C@]12CC[C@@H]3c4ccc(O)cc4C[C@@H](CCCCCCCCC[S+]([O-])CCCC(F)(F)C(F)(F)F)[C@H]3[C@@H]1CC[C@@H]2O` (stereo partly drawn) [Fulvestrant] displayed a cFRET/donor change of 0.0846.

Regarding `CCC1(c2ccccc2)C(=O)NCNC1=O` [Primidone], the cFRET/donor change is 0.0823.

On to `COc1cc(Nc2c(C#N)cnc3cc(OCCCN4CCN(C)CC4)c(OC)cc23)c(Cl)cc1Cl` [Bosutinib], for which the cFRET/donor change worked out at 0.241.

Take `COc1ccccc1N1CCN(CCCNc2c(C)c(=O)n(C)c(=O)n2C)CC1` [Urapidil, 5-Methyl-]: the cFRET/donor change turned out to be 0.0714.

On to `C[C@]12CCC(=O)C=C1CC[C@@H]1[C@@H]2CC[C@@]2(C)[C@H]1CC[C@]2(O)C(=O)CO` [Cortexolone], for which the cFRET/donor change is 0.123.

`COC(=O)C1=C(C)NC(C)=C(C(=O)OC(C)(C)CN(C)CCC(c2ccccc2)c2ccccc2)C1c1cccc([N+](=O)[O-])c1` (stereo not drawn) [Lercanidipine hydrochloride hemihydrate] displayed a cFRET/donor change of 0.109.

For the compound `NC[C@@H]1O[C@H](C23CC4CC(CC(C4)C2)C3)Cc2c1ccc(O)c2O`, the cFRET/donor change was 0.353.

Take `CC1CCN(CC[C@H]2CCCN2S(=O)(=O)c2cccc(O)c2)CC1`: the cFRET/donor change was found to be 0.517.

`CN1CCN(CC(=O)N2c3ccccc3C(=O)Nc3cccnc32)CC1` [Pirenzepine dihydrochloride]: the cFRET/donor change is -0.0803.

The compound `O=C1c2c(O)cc(O)cc2O[C@H](c2ccc(O)c(O)c2)[C@H]1O` (racemic) [(±)-Taxifolin] yielded a cFRET/donor change of 0.226.

`CNCCc1cnc(CCC(c2ccccc2)c2ccccc2)[nH]1` [N-Methylhistaprodifen dioxalate salt] registered a cFRET/donor change of 0.364.

For the compound `COc1ccc(C2(O)OC(=O)C(c3ccc4c(c3)OCO4)=C2Cc2cc(OC)c(OC)c(OC)c2)cc1` (stereo not drawn), the cFRET/donor change came out at 0.173.

In the case of `CCCNC(=O)NS(=O)(=O)c1ccc(Cl)cc1` [Chlorpropamide], the cFRET/donor change came out at 0.196.

Consider `CCN(CC)C(C)CN1c2ccccc2Sc2ccccc21` (stereo not drawn) [Ethopropazine hydrochloride], for which the cFRET/donor change is -0.00468.

Turning to `Clc1cccc(Cl)c1NC1=NCCN1` [Clonidine hydrochloride], the cFRET/donor change was found to be 0.448.

Turning to `CN1CCN(C2Cc3ccccc3Sc3ccc(Cl)cc32)CC1` (racemic) [(±)-Octoclothepin maleate], the cFRET/donor change was found to be 0.337.

Consider `N=C(N)NCCCCNC(=N)N` [Arcaine sulfate], for which the cFRET/donor change was -0.135.

The compound `O=C(CCCCCN1CCN(c2ccccc2-c2ccccc2)CC1)NC1CCCc2ccccc21` (stereo not drawn) [LP 12 hydrochloride hydrate] displayed a cFRET/donor change of 1.51.

Consider `O=C(O)CCc1ccc(NCc2cccc(Oc3ccccc3)c2)cc1`, for which the cFRET/donor change is -0.4.

`O=C1NC(=O)c2cc(Nc3ccccc3)c(Nc3ccccc3)cc21`: the cFRET/donor change turned out to be 1.14.

`O=C1NCC2(CCN(CCc3ccccc3)CC2)O1` [Fenspiride hydrochloride] showed a cFRET/donor change of 0.47.

As for `Cl.N[C@@H](CCC(=O)O)C(=O)O` [L-Glutamic acid hydrochloride], the cFRET/donor change was determined as 0.334.

The compound `CSC(=N)N` [S-Methylisothiourea hemisulfate] registered a cFRET/donor change of 0.319.

The compound `CCN(CC)C(=O)c1ccc(O)c(OC)c1` [Vanillic acid diethylamide] displayed a cFRET/donor change of 0.26.

On to `CN1C(C(=O)Nc2ccccn2)=C(O)c2ccccc2S1(=O)=O` [Piroxicam], for which the cFRET/donor change was 0.243.

`COCCOC(=O)C1=C(C)NC(C)=C(C(=O)OC(C)C)C1c1cccc([N+](=O)[O-])c1` (stereo not drawn) [Nimodipine] had a cFRET/donor change of 0.119.

For the compound `NCCS` [Cysteamine hydrochloride], the cFRET/donor change came out at 0.308.

On to `CC(N)(Cc1ccc(O)cc1)C(=O)O` (racemic) [DL-alpha-Methyl-p-tyrosine], for which the cFRET/donor change is -0.224.

In turn, `COC(=O)[C@@H](N)Cc1ccc(O)c(O)c1` [L-3,4-Dihydroxyphenylalanine methyl ester hydrochloride] displayed a cFRET/donor change of 0.37.

Compound `COc1ccc2c(c1)c(CC(=O)O)c(C)n2Cc1ccc(Cl)cc1` [1-(4-Chlorobenzyl)-5-methoxy-2-methylindole-3-acetic acid] came in with a cFRET/donor change of 0.248.

Consider `O=C(CCCN1CCC(O)(c2ccc(Cl)cc2)CC1)c1ccc(F)cc1` [Haloperidol], for which the cFRET/donor change stood at 0.135.

With `CC(C[N+](C)(C)C)OC(N)=O` (stereo not drawn) [Bethanechol chloride], the cFRET/donor change was -0.028.

Turning to `N[C@@H](Cc1c[nH]cn1)C(=O)O` [L-Histidine hydrochloride], the cFRET/donor change is -0.0447.

Consider `Cc1cn([C@H]2C[C@H](N=[N+]=[N-])[C@@H](CO)O2)c(=O)[nH]c1=O` [3'-Azido-3'-deoxythymidine], for which the cFRET/donor change is -0.184.

On to `COc1ccc([C@@H]2Sc3ccccc3N(CCN(C)C)C(=O)[C@@H]2OC(C)=O)cc1` [Diltiazem hydrochloride], for which the cFRET/donor change came out at 0.341.

`O=C1N=C(O)NC1(c1ccccc1)c1ccccc1` [Phenytoin sodium] displayed a cFRET/donor change of 0.149.

As for `CCOC(=O)[C@@H](N)Cc1ccc(O)c(O)c1` [L-Dopa ethyl ester], the cFRET/donor change was -0.101.

For `O=C1Nc2ccc(I)cc2/C1=C/c1cc(Br)c(O)c(Br)c1`, the cFRET/donor change was -3.

Compound `NCCCCN` [Putrescine dihydrochloride] registered a cFRET/donor change of 0.0353.

`Cc1cccc(-c2[nH]ncc2-c2ccc3ncccc3n2)n1` showed a cFRET/donor change of 0.0385.

With `O=C1OC(=O)[C@H]2[C@@H]1[C@@H]1CC[C@H]2O1` [Norcantharidin], the cFRET/donor change came to 0.251.

Regarding `Nc1nc2c(ncn2[C@@H]2O[C@H](CO)[C@@H](O)[C@@H]2O)c(=O)[nH]1` [Ara-G hydrate], the cFRET/donor change is 0.198.

With `Cc1nnc(SCC2=C(C(=O)O)N3C(=O)[C@@H](NC(=O)Cn4cnnn4)[C@H]3SC2)s1` [Cefazolin sodium], the cFRET/donor change came to 0.345.

In turn, `CCCCC1(C2CCCC2)Cc2cc(OCC(=O)O)c(Cl)c(Cl)c2C1=O` (stereo in doubt) [R(+)-Butylindazone] had a cFRET/donor change of 0.322.

Compound `Oc1cc(O)cc(/C=C/c2ccc(O)c(O)c2)c1` [Piceatannol] displayed a cFRET/donor change of 1.61.

Compound `Nc1nnc(-c2cccc(Cl)c2Cl)c(N)n1` [Lamotrigine] came in with a cFRET/donor change of 0.327.

Turning to `CC[C@@]1(O)C(=O)OCc2c1cc1n(c2=O)Cc2cc3c(CN(C)C)c(O)ccc3nc2-1` [Topotecan hydrochloride hydrate], the cFRET/donor change is -3.92.

Consider `O=c1c2ccccc2[nH]c(=S)n1CCN1CCC(=C(c2ccc(F)cc2)c2ccc(F)cc2)CC1` [Diacylglycerol Kinase Inhibitor II], for which the cFRET/donor change is 0.449.

Regarding `CC(=O)NC[C@H]1CN(c2ccc(N3CCOCC3)c(F)c2)C(=O)O1` [Linezolid], the cFRET/donor change stood at 0.372.

For the compound `C[C@H](CCC(=O)NCCS(=O)(=O)O)[C@H]1CC[C@H]2[C@@H]3[C@H](O)C[C@@H]4C[C@H](O)CC[C@]4(C)[C@H]3C[C@H](O)[C@]12C` [Sodium Taurocholate hydrate], the cFRET/donor change is 0.0638.

`Cc1ccc(S(=O)(=O)/C=C/C#N)cc1` registered a cFRET/donor change of 0.324.

In the case of `CC1=C(C(=O)O)N2C(=O)[C@@H](NC(=O)[C@H](N)c3ccccc3)[C@H]2SC1` [Cephalexin hydrate], the cFRET/donor change was 0.038.

Compound `CCCc1c(OCCCOc2ccc(OCC(=O)O)cc2)ccc(C(C)=O)c1O` gave a cFRET/donor change of 0.0477.

Take `CN1CC(=O)N=C1NC(=O)Nc1cccc(Cl)c1` [Fenobam]: the cFRET/donor change was -0.00878.

Turning to `CNCC[C@@H](Oc1ccccc1C)c1ccccc1` [Tomoxetine], the cFRET/donor change turned out to be 0.163.

Regarding `CSc1nc(N)c2ncn([C@@H]3O[C@H](COP(=O)(O)OP(=O)(O)O)[C@H](O)C3O)c2n1` (stereo partly drawn), the cFRET/donor change is -0.144.

On to `Nc1c(S(=O)(=O)O)cc(Nc2ccc(Nc3nc(Cl)nc(Nc4cccc(S(=O)(=O)O)c4)n3)c(S(=O)(=O)O)c2)c2c1C(=O)c1ccccc1C2=O` [Reactive Blue 2], for which the cFRET/donor change was -0.336.

Regarding `NS(=O)(=O)C#Cc1ccccc1` [Pifithrin-mu], the cFRET/donor change was determined as 0.551.

`CCCCC1C(=O)N(c2ccccc2)N(c2ccccc2)C1=O` [Phenylbutazone] had a cFRET/donor change of 0.0948.

As for `N=C(N)SCCN` [2-(2-Aminoethyl)isothiourea dihydrobromide], the cFRET/donor change was -0.331.

With `N=C(N)N1CCc2ccccc2C1` [Debrisoquin sulfate], the cFRET/donor change was 0.0301.

The compound `O=C(O)Cc1ccc(O)c(O)c1` [3,4-Dihydroxyphenylacetic acid] yielded a cFRET/donor change of 0.947.

`CN1[C@@H]2CC[C@H]1C[C@@H](OC(c1ccccc1)c1ccccc1)C2` [Benztropine mesylate] returned a cFRET/donor change of 0.586.

With `CC1(C)C(=O)N(CCN2CCC(C(=O)c3ccc(F)cc3)CC2)c2ccccc21` [LY-310,762 hydrochloride], the cFRET/donor change was 0.599.

Consider `CN(C)CCC(c1ccccc1)c1ccccn1` (stereo not drawn) [Pheniramine maleate], for which the cFRET/donor change was -0.0525.

As to `Cc1c(O)cccc1C(=O)N[C@@H](CSc1ccccc1)[C@H](O)CN1C[C@H]2CCCC[C@H]2C[C@H]1C(=O)NC(C)(C)C` [Nelfinavir mesylate hydrate], the cFRET/donor change is -0.54.

The compound `COc1ccc(/C=C2\COc3ccc(C)cc3C2=O)cc1O` displayed a cFRET/donor change of 0.511.

Consider `COC1=C(OC)C(=O)c2ccccc2C1=O` [2,3-Dimethoxy-1,4-naphthoquinone], for which the cFRET/donor change is 0.433.

As for `CCN1CCCC1CNC(=O)c1cc(S(N)(=O)=O)ccc1OC` (racemic) [(±)-Sulpiride], the cFRET/donor change was -0.161.

Compound `CN(C)C(=O)N=NC(=O)N(C)C` [N,N,N',N'-Tetramethylazodicarboxamide] came in with a cFRET/donor change of 0.0995.
